{
  "sequences": {"note": "Sequences of proteins named here, by UniProt entry; tags and fusion partners are left off. A change or cut given only in a name is not applied to a line headed by its entry.", "UniProt P38038": "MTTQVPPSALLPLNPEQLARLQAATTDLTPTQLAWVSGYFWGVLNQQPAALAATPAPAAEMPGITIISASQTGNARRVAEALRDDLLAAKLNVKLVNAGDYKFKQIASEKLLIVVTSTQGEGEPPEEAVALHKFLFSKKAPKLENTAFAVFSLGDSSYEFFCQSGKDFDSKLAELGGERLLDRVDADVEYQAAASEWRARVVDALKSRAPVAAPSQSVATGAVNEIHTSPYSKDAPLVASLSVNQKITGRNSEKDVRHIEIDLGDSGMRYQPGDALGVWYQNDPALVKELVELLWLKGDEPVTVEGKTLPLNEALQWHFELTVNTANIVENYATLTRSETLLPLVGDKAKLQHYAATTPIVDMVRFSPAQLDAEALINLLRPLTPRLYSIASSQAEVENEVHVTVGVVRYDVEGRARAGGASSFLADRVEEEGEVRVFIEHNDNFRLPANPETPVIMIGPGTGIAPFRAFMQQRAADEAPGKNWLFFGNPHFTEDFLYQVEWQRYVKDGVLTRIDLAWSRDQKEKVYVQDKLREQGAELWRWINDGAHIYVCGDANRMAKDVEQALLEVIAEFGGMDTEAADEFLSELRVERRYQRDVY"},
  "source": "paper PMC11303004",
  "target": "T1, sulfite reductase hemoprotein (HP), as in the minimal SiRFP/HP dimer (UniProt P17846)",
  "T1 sequence": "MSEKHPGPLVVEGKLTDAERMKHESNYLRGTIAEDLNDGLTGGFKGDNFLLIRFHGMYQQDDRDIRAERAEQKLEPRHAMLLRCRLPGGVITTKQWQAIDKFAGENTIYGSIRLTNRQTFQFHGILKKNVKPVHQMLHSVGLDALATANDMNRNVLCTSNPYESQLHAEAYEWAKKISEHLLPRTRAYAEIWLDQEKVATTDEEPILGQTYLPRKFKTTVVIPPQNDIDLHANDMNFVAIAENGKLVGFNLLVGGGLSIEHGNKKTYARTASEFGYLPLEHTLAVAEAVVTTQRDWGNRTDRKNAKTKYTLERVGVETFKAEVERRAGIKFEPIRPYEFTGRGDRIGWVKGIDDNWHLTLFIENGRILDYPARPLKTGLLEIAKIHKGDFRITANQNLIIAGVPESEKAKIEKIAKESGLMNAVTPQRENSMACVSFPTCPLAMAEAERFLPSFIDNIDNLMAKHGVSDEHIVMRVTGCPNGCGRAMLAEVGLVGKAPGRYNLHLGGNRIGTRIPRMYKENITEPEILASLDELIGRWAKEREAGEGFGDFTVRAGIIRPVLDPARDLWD",
  "assay": "cryo-EM 2D class averages; SPOT-RASTR: SiRFP/HP at 0.2 mg/mL bound to Ni-NTA lipid nanotubes on the grid, plunge frozen; tube signal subtracted; 2D classes only, no 3D reconstruction; both purified",
  "note": "Results are given in words; binding and its absence hold for the method and conditions named. Binding calls can cover weak binding; strength is not graded here.",
  "data": [
    {"substance": "sulfite reductase flavoprotein (SiRFP), as in the minimal SiRFP/HP dimer (from UniProt P38038) (enzyme)", "values": [
      {"measurement": "binding", "result": "binds"}
    ]}
  ]
}
